Reference: PMC4501846
These are yes or no findings as the source states them, for the method shown. In cells and extracts the contact can be indirect. Here binding means that the protein was enriched with, or labelled near, the bait; the list need not be complete. Each block holds one molecule with its values, some of them ahead of it.

The chains behind the UniProt entries cited, without tags or fusion partners. Where a name states a change or a piece, a line headed by the entry shows the natural chain unless it says otherwise.
UniProt P51149: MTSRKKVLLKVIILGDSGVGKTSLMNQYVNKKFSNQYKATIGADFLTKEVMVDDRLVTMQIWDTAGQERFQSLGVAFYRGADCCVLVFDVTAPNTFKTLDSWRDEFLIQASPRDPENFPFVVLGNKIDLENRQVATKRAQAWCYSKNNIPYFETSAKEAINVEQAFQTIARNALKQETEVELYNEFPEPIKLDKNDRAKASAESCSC
UniProt Q709C8: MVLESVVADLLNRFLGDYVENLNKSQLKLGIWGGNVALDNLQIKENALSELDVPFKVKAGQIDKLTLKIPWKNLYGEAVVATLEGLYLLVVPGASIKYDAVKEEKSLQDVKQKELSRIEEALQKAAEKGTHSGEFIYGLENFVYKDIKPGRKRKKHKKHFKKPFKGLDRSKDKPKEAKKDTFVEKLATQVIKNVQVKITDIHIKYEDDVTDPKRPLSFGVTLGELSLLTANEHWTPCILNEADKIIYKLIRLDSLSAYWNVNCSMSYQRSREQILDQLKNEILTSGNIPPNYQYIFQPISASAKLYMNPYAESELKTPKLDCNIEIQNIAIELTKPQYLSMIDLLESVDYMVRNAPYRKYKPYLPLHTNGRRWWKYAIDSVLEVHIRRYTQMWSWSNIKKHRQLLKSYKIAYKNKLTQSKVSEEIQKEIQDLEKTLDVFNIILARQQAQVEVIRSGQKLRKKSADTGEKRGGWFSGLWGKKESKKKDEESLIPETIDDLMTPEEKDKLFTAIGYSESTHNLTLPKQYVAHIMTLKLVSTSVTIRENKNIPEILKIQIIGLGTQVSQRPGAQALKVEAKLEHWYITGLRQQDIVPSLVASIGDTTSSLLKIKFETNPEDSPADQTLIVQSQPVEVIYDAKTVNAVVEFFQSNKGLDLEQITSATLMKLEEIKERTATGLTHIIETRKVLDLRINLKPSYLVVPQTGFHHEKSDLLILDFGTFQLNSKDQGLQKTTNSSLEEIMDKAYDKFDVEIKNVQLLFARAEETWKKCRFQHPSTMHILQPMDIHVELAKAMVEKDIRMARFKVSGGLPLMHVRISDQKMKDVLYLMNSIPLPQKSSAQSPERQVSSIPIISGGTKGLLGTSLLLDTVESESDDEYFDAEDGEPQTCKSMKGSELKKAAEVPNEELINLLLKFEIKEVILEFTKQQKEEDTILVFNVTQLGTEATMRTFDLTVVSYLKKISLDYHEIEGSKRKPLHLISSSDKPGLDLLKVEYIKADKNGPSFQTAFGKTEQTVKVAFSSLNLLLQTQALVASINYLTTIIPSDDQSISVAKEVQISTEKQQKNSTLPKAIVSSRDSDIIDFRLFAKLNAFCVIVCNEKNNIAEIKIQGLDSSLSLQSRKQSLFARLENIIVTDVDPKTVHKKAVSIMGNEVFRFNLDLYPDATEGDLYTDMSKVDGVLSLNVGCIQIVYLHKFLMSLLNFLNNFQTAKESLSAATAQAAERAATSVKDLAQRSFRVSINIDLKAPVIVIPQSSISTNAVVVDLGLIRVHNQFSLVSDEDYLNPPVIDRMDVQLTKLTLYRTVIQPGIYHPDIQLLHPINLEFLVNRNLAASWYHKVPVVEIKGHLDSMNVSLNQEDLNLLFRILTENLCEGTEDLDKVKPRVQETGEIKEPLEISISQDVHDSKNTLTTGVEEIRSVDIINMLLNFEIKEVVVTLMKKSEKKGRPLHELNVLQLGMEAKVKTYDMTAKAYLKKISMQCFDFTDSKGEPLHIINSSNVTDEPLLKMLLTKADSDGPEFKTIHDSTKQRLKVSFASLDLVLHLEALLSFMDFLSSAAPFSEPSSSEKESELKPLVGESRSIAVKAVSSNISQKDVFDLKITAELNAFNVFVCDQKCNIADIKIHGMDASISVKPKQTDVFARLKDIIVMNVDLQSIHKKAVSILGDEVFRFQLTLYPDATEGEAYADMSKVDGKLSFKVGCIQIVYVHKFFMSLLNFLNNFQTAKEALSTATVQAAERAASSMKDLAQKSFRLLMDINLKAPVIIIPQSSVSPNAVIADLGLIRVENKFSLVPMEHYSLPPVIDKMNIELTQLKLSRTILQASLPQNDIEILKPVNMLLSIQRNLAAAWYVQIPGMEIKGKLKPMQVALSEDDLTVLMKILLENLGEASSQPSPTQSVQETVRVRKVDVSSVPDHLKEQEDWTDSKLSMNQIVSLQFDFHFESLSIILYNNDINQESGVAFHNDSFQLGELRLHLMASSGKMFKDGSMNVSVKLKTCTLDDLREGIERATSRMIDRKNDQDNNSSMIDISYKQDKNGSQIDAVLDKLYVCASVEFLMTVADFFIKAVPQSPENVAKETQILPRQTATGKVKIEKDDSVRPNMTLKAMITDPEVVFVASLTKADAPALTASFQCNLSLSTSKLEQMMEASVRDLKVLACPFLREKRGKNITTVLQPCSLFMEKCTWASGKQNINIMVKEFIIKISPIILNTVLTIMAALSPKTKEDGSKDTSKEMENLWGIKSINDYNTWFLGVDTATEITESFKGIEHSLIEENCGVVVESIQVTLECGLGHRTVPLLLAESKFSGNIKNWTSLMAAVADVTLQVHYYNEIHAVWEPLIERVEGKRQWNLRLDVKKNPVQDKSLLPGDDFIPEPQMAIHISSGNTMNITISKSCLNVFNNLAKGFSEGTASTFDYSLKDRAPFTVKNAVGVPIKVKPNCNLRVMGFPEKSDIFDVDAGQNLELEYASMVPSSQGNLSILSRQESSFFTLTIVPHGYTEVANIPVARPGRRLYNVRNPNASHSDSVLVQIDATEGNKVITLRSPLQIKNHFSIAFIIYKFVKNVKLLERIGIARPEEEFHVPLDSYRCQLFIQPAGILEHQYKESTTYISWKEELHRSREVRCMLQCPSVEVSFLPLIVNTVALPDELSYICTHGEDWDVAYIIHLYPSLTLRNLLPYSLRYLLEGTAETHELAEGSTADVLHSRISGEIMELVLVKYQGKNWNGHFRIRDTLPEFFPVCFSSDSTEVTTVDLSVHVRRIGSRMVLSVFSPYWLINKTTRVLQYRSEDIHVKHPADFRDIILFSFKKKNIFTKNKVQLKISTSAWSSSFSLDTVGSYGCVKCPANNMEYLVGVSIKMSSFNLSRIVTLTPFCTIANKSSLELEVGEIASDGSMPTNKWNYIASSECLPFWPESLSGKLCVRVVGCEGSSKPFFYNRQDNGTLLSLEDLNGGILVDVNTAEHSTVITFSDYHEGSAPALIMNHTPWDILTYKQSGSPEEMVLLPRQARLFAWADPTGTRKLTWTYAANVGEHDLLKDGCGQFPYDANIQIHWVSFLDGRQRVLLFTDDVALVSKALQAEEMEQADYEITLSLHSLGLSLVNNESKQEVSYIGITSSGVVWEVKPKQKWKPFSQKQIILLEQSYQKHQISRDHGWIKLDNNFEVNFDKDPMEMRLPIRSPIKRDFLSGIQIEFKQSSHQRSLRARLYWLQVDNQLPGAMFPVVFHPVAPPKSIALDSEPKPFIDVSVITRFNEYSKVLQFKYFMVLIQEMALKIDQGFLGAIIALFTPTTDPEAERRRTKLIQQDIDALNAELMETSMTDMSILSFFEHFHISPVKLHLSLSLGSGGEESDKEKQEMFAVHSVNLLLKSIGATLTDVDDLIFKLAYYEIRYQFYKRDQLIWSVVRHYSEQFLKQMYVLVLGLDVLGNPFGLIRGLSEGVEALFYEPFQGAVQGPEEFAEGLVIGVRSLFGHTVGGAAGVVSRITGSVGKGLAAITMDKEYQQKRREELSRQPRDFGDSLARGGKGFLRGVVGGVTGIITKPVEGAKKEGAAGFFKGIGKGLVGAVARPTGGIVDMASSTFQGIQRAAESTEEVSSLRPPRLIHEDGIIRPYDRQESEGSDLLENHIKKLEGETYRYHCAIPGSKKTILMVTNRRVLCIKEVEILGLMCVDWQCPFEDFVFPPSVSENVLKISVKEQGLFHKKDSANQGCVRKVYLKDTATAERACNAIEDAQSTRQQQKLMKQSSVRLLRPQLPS

Biological target: GFP-RAB7A S72A (UniProt P51149)
Test: affinity purification with mass spectrometry; SILAC-labelled HeLa cells transfected with GFP-RAB7A or GFP (Exp 1), GFP-RAB7A S72E or S72A (Exp 2); lysed in RAB7A IP buffer (20 mM HEPES, 10% glycerol, 0.5% Triton X-100, 150 mM NaCl, 2 mM MgCl2); GFP-trap; LC-MS/MS

- binding: binds
Molecule: VSP13C (from UniProt Q709C8 1-3753)

- binding: binds
B1: CHM (protein, UniProt P24386 1-653)
chain: MADTLPSEFDVIVIGTGLPESIIAAACSRSGRRVLHVDSRSYYGGNWASFSFSGLLSWLKEYQENSDIVSDSPVWQDQILENEEAIALSRKDKTIQHVEVFCYASQDLHEDVEEAGALQKNHALVTSANSTEAADSAFLPTEDESLSTMSCEMLTEQTPSSDPENALEVNGAEVTGEKENHCDDKTCVPSTSAEDMSENVPIAEDTTEQPKKNRITYSQIIKEGRRFNIDLVSKLLYSRGLLIDLLIKSNVSRYAEFKNITRILAFREGRVEQVPCSRADVFNSKQLTMVEKRMLMKFLTFCMEYEKYPDEYKGYEEITFYEYLKTQKLTPNLQYIVMHSIAMTSETASSTIDGLKATKNFLHCLGRYGNTPFLFPLYGQGELPQCFCRMCAVFGGIYCLRHSVQCLVVDKESRKCKAIIDQFGQRIISEHFLVEDSYFPENMCSRVQYRQISRAVLITDRSVLKTDSDQQISILTVPAEEPGTFAVRVIELCSSTMTCMKGTYLVHLTCTSSKTAREDLESVVQKLFVPYTEMEIENEQVEKPRILWALYFNMRDSSDISRSCYNDLPSNVYVCSGPDCGLGNDNAVKQAETLFQEICPNEDFCPPPPNPEDIILDGDSLQPEASESSAIPEANSETFKESTNLGNLEESSE

- binding: binds
B2: CHML (protein, UniProt P26374 1-656)
chain: MADNLPTEFDVVIIGTGLPESILAAACSRSGQRVLHIDSRSYYGGNWASFSFSGLLSWLKEYQQNNDIGEESTVVWQDLIHETEEAITLRKKDETIQHTEAFCYASQDMEDNVEEIGALQKNPSLGVSNTFTEVLDSALPEESQLSYFNSDEMPAKHTQKSDTEISLEVTDVEESVEKEKYCGDKTCMHTVSDKDGDKDESKSTVEDKADEPIRNRITYSQIVKEGRRFNIDLVSKLLYSQGLLIDLLIKSDVSRYVEFKNVTRILAFREGKVEQVPCSRADVFNSKELTMVEKRMLMKFLTFCLEYEQHPDEYQAFRQCSFSEYLKTKKLTPNLQHFVLHSIAMTSESSCTTIDGLNATKNFLQCLGRFGNTPFLFPLYGQGEIPQGFCRMCAVFGGIYCLRHKVQCFVVDKESGRCKAIIDHFGQRINAKYFIVEDSYLSEETCSNVQYKQISRAVLITDQSILKTDLDQQTSILIVPPAEPGACAVRVTELCSSTMTCMKDTYLVHLTCSSSKTAREDLESVVKKLFTPYTETEINEEELTKPRLLWALYFNMRDSSGISRSSYNGLPSNVYVCSGPDCGLGNEHAVKQAETLFQEIFPTEEFCPPPPNPEDIIFDGDDKQPEAPGTNNVVMAKLESSEESKNLESPEKHLQN
